Results published in publication PMC11789017, “Preventing inappropriate signals pre- and post-ligand perception by a toggle switch mechanism of ERECTA” (Proceedings of the National Academy of Sciences of the …, 2025).
No constants are given. Whether binding was seen depends on the method and setting. For some assays here: In cells and extracts the contact can be indirect. Some entries that bind do so weakly or less than the wild type. Sequences can lack the tags named with a protein.

T1: PUB31 (U-box E3 ligase, in vitro assay of SI Appendix Fig. S7A) (UniProt Q9FHN9)
T1 sequence: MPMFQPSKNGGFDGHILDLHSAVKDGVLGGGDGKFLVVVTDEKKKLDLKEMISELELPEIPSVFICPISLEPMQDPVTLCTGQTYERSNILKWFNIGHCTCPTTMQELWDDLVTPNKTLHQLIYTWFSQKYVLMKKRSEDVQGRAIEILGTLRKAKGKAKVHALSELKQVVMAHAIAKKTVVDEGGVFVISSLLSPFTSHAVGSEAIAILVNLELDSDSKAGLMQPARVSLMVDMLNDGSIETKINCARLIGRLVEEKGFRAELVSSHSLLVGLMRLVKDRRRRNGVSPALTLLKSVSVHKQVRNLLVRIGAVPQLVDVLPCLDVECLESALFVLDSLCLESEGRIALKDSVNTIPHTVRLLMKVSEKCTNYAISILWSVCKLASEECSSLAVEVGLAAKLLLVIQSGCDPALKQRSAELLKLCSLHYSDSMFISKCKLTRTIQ

T2: PUB31-MYC (Arabidopsis protoplasts) (UniProt Q9FHN9)
T2 sequence: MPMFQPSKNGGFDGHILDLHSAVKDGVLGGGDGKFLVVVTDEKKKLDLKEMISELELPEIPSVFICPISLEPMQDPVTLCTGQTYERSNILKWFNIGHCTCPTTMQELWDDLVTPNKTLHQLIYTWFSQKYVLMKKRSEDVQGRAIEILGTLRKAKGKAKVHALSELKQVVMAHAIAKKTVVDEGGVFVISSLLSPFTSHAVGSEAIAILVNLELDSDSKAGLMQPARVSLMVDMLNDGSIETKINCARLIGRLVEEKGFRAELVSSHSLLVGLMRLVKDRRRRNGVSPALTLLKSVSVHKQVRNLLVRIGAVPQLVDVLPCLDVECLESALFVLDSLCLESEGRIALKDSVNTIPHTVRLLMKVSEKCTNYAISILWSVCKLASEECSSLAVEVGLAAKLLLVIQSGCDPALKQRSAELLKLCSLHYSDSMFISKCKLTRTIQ


Tests used:
[1] = molecular target: T1, PUB31 (U-box E3 ligase, in vitro assay of SI Appendix Fig. S7A); test: BLI; PUB31 with ER_CD and its C-terminal deletion version (SI Appendix, Fig. S7A); details not shown
[2] = molecular target: T2, PUB31-MYC (Arabidopsis protoplasts); test: co-IP; Arabidopsis protoplasts coexpressing HA-tagged ER variants and PUB31-MYC (SI Appendix, Fig. S7B)

Row | binding [1] | binding [2] | Binder
1 | binds | – | MBP-fused full-length ER cytoplasmic domain (MBP-ER_CD) (domain or fragment, Arabidopsis, UniProt Q42371 602-976, looked up, ERECTA (ER) receptor kinase, Arabidopsis, cytoplasmic domain (juxtamembrane domain, kinase domain and C-terminal tail); source: recombinant, expressed and purified; not shown: MBP, N-terminal, kept) CRPHNPPPFLDGSLDKPVTYSTPKLVILHMNMALHVYEDIMRMTENLSEKYIIGHGASSTVYKCVLKNCKPVAIKRLYSHNPQSMKQFETELEMLSSIKHRNLVSLQAYSLSHLGSLLFYDYLENGSLWDLLHGPTKKKTLDWDTRLKIAYGAAQGLAYLHHDCSPRIIHRDVKSSNILLDKDLEARLTDFGIAKSLCVSKSHTSTYVMGTIGYIDPEYARTSRLTEKSDVYSYGIVLLELLTRRKAVDDESNLHHLIMSKTGNNEVMEMADPDITSTCKDLGVVKKVFQLALLCTKRQPNDRPTMHQVTRVLGSFMLSEQPPAATDTSATLAGSCYVDEYANLKTPHSVNCSSMSASDAQLFLRFGQVISQNSE
2 | – | binds | ER-HA (Arabidopsis protoplasts) (receptor, UniProt Q42371 25-976) EEGATLLEIKKSFKDVNNVLYDWTTSPSSDYCVWRGVSCENVTFNVVALNLSDLNLDGEISPAIGDLKSLLSIDLRGNRLSGQIPDEIGDCSSLQNLDLSFNELSGDIPFSISKLKQLEQLILKNNQLIGPIPSTLSQIPNLKILDLAQNKLSGEIPRLIYWNEVLQYLGLRGNNLVGNISPDLCQLTGLWYFDVRNNSLTGSIPETIGNCTAFQVLDLSYNQLTGEIPFDIGFLQVATLSLQGNQLSGKIPSVIGLMQALAVLDLSGNLLSGSIPPILGNLTFTEKLYLHSNKLTGSIPPELGNMSKLHYLELNDNHLTGHIPPELGKLTDLFDLNVANNDLEGPIPDHLSSCTNLNSLNVHGNKFSGTIPRAFQKLESMTYLNLSSNNIKGPIPVELSRIGNLDTLDLSNNKINGIIPSSLGDLEHLLKMNLSRNHITGVVPGDFGNLRSIMEIDLSNNDISGPIPEELNQLQNIILLRLENNNLTGNVGSLANCLSLTVLNVSHNNLVGDIPKNNNFSRFSPDSFIGNPGLCGSWLNSPCHDSRRTVRVSISRAAILGIAIGGLVILLMVLIAACRPHNPPPFLDGSLDKPVTYSTPKLVILHMNMALHVYEDIMRMTENLSEKYIIGHGASSTVYKCVLKNCKPVAIKRLYSHNPQSMKQFETELEMLSSIKHRNLVSLQAYSLSHLGSLLFYDYLENGSLWDLLHGPTKKKTLDWDTRLKIAYGAAQGLAYLHHDCSPRIIHRDVKSSNILLDKDLEARLTDFGIAKSLCVSKSHTSTYVMGTIGYIDPEYARTSRLTEKSDVYSYGIVLLELLTRRKAVDDESNLHHLIMSKTGNNEVMEMADPDITSTCKDLGVVKKVFQLALLCTKRQPNDRPTMHQVTRVLGSFMLSEQPPAATDTSATLAGSCYVDEYANLKTPHSVNCSSMSASDAQLFLRFGQVISQNSE
